# Measurements reported in the supplement of paper PMC8728848.
# The other results are listed elsewhere or left out.
# B1: OS9 (Arabidopsis thaliana) (protein)
# chain: MRGSHHHHHHGMASMTGGQQMGRDLYDDDDKSRLQIFPAHLVGTFSRNNREPKYKIEFLPEDSPFHPGDNLESMVMLDKHGNRFLCYLPKEEKATSGWTSSQQNISTVMMETQQLVKLKTPDELLQPLSEKCLFRQEGWWSYEFCHQKYVRQLHVEDENKIVQEFFLGTFDPEATAAFNQTVSDASTDASQRYHSHVYTNGTTCDLTGSPAEVEVRFVCAETRAMVTSITELSTCKYALTVQCPTLCKHPLFQLEKPVSHTIHCNAIPVEEDATRNKEEQAVDESPKMIADS
# Columns and labels:
# Test in all cases: glycan array binding signal (z-score within array); higher = stronger binding
# Conditions in all cases: glycan notation: IUPAC condensed, linker removed; mutation: R201A
# [1] = biological target: GalNAc(a1-3)GalNAc(b1-3)Gal(a1-4)Gal(b1-4)GlcNAc
# In short: (§1)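 From the Consortium for Functional Glycomics database, 3228 arrays were curated, keeping only those whose protein sequence was available. Binding is given as a within-array Z-score averaged across arrays sharing a protein sequence and across linkers. Negative Z-scores can be read as non-binding.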
# GalNAc(b1-3)Gal = biological target: GalNAc(b1-3)Gal
# In short: as §1
# [2] = biological target: GalNAc(b1-3)Gal(a1-4)Gal(b1-4)GlcNAc
# In short: as §1
# [3] = biological target: GalNAc(b1-3)Gal(a1-4)Gal(b1-4)GlcNAc(b1-3)Gal(b1-4)Glc
# In short: as §1
# [4] = biological target: GalNAc(b1-3)Gal(a1-6)Gal(b1-4)Glc
# In short: as §1
# GalNAc(b1-3)GalNAc = biological target: GalNAc(b1-3)GalNAc
# In short: as §1
# GalNAc(b1-3)GlcNAc = biological target: GalNAc(b1-3)GlcNAc
# In short: as §1
# GalNAc(b1-4)Gal(b1-4)Glc = biological target: GalNAc(b1-4)Gal(b1-4)Glc
# In short: as §1
# GalNAc(b1-4)GlcNAc = biological target: GalNAc(b1-4)GlcNAc
# In short: as §1
# [5] = biological target: GalNAc(b1-4)GlcNAc(b1-2)Man
# In short: as §1
# [6] = biological target: GalNAc(b1-4)GlcNAc(b1-2)Man(a1-3)[GalNAc(b1-4)GlcNAc(b1-2)Man(a1-6)]Man(b1-4)GlcNAc(b1-4)GlcNAc
# In short: as §1
# [7] = biological target: GalNAc(b1-4)GlcNAc(b1-3)GalNAc(b1-4)GlcNAc
# In short: as §1
# GalNAc(b1-4)GlcNAc6S = biological target: GalNAc(b1-4)GlcNAc6S
# In short: as §1
# GalNAc(b1-6)GalNAc = biological target: GalNAc(b1-6)GalNAc
# In short: as §1
# GalNAc3S(b1-4)GlcNAc = biological target: GalNAc3S(b1-4)GlcNAc
# In short: as §1
# GalNAc3S(b1-4)GlcNAc3S = biological target: GalNAc3S(b1-4)GlcNAc3S
# In short: as §1
# [8] = biological target: GalNAc3S(b1-4)[Fuc(a1-3)]GlcNAc
# In short: as §1
# GalNAc4S6S(b1-4)GlcNAc = biological target: GalNAc4S6S(b1-4)GlcNAc
# In short: as §1
# GalNAc6S(b1-4)GlcNAc = biological target: GalNAc6S(b1-4)GlcNAc
# In short: as §1
# Glc(a1-4)Glc = biological target: Glc(a1-4)Glc
# In short: as §1
# [9] = biological target: Glc(a1-4)Glc(a1-4)Glc(a1-4)Glc
# In short: as §1
# Glc(a1-6)Glc(a1-6)Glc = biological target: Glc(a1-6)Glc(a1-6)Glc
# In short: as §1
# [10] = biological target: Glc(a1-6)Glc(a1-6)Glc(a1-6)Glc
# In short: as §1
# Glc(b1-4)Glc = biological target: Glc(b1-4)Glc
# In short: as §1
# Glc(b1-6)Glc = biological target: Glc(b1-6)Glc
# In short: as §1
# GlcA(b1-3)Gal = biological target: GlcA(b1-3)Gal
# In short: as §1
# GlcA(b1-3)GlcNAc = biological target: GlcA(b1-3)GlcNAc
# In short: as §1
# GlcA(b1-6)Gal = biological target: GlcA(b1-6)Gal
# In short: as §1
# [11] = biological target: GlcA3S(b1-3)Gal(b1-4)GlcNAc(b1-2)Man
# In short: as §1
# [12] = biological target: GlcA3S(b1-3)Gal(b1-4)GlcNAc(b1-3)Gal(b1-4)Glc
# In short: as §1
# [13] = biological target: GlcNAc(a1-3)Gal(b1-4)GlcNAc
# In short: as §1
# [14] = biological target: GlcNAc(a1-4)Gal(b1-3)GlcNAc
# In short: as §1
# [15] = biological target: GlcNAc(a1-4)Gal(b1-4)GalNAc
# In short: as §1
# [16] = biological target: GlcNAc(a1-4)Gal(b1-4)GlcNAc
# In short: as §1
# [17] = biological target: GlcNAc(a1-4)Gal(b1-4)GlcNAc(b1-3)Gal(b1-4)Glc
# In short: as §1
# [18] = biological target: GlcNAc(a1-4)Gal(b1-4)GlcNAc(b1-3)Gal(b1-4)GlcNAc
# In short: as §1
# [19] = biological target: GlcNAc(a1-4)Gal(b1-4)GlcNAc(b1-3)Gal(b1-4)GlcNAc(b1-3)Gal(b1-4)GlcNAc
# In short: as §1
# [20] = biological target: GlcNAc(a1-4)Gal(b1-4)GlcNAc(b1-3)Gal(b1-4)[Fuc(a1-3)]GlcNAc(b1-3)Gal(b1-4)[Fuc(a1-3)]GlcNAc
# In short: as §1
binder,measurement,setting,value
B1,glycan array binding signal (z-score),[1],-0.114
same,glycan array binding signal (z-score),GalNAc(b1-3)Gal,-0.932
same,glycan array binding signal (z-score),[2],2.17
same,glycan array binding signal (z-score),[3],0.058
same,glycan array binding signal (z-score),[4],0.217
same,glycan array binding signal (z-score),GalNAc(b1-3)GalNAc,-1.08
same,glycan array binding signal (z-score),GalNAc(b1-3)GlcNAc,-0.41
same,glycan array binding signal (z-score),GalNAc(b1-4)Gal(b1-4)Glc,1.1
same,glycan array binding signal (z-score),GalNAc(b1-4)GlcNAc,1.25
same,glycan array binding signal (z-score),[5],-0.093
same,glycan array binding signal (z-score),[6],-1.21
same,glycan array binding signal (z-score),[7],0.091
same,glycan array binding signal (z-score),GalNAc(b1-4)GlcNAc6S,-0.261
same,glycan array binding signal (z-score),GalNAc(b1-6)GalNAc,-1.2
same,glycan array binding signal (z-score),GalNAc3S(b1-4)GlcNAc,2.29
same,glycan array binding signal (z-score),GalNAc3S(b1-4)GlcNAc3S,-0.743
same,glycan array binding signal (z-score),[8],-0.553
same,glycan array binding signal (z-score),GalNAc4S6S(b1-4)GlcNAc,0.097
same,glycan array binding signal (z-score),GalNAc6S(b1-4)GlcNAc,-0.347
same,glycan array binding signal (z-score),Glc(a1-4)Glc,1.08
same,glycan array binding signal (z-score),[9],-0.427
same,glycan array binding signal (z-score),Glc(a1-6)Glc(a1-6)Glc,1.02
same,glycan array binding signal (z-score),[10],-1.12
same,glycan array binding signal (z-score),Glc(b1-4)Glc,2.1
same,glycan array binding signal (z-score),Glc(b1-6)Glc,0.913
same,glycan array binding signal (z-score),GlcA(b1-3)Gal,-0.17
same,glycan array binding signal (z-score),GlcA(b1-3)GlcNAc,1.54
same,glycan array binding signal (z-score),GlcA(b1-6)Gal,-0.033
same,glycan array binding signal (z-score),[11],-0.713
same,glycan array binding signal (z-score),[12],0.717
same,glycan array binding signal (z-score),[13],-0.897
same,glycan array binding signal (z-score),[14],1.02
same,glycan array binding signal (z-score),[15],0.085
same,glycan array binding signal (z-score),[16],-0.32
same,glycan array binding signal (z-score),[17],-0.492
same,glycan array binding signal (z-score),[18],-0.479
same,glycan array binding signal (z-score),[19],0.447
same,glycan array binding signal (z-score),[20],-0.263

# Rewritten as tab-separated lines: entries from further up.
binder	measurement	setting	value
B1	glycan array binding signal (z-score)	[13]	-0.897
same	glycan array binding signal (z-score)	[14]	1.02
